# Source: PubChem BioAssay AID1259280 (Sanger Institute, 2017)
# Purpose: 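Essential kinases and drug-combination synergies in SNU407 cells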 (primary screen)
# Cell system: human SNU407 colorectal cancer cells
# Knock-down reagent: siRNA pool against human genes
# Conditions: anchor drugs BYL719 at 1 µM, cetuximab at 5 µg/ml or trametinib at 10 nM, or DMSO vehicle alone; exposure time not given
# Measured: 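Viability per well scaled to a non-targeting pool and averaged over replicates, with a robust z-score from controls and a synergy score per anchor drug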
# Scale: viability z-score, no drug and viability vs control, no drug: higher = more cells survive the knock-down; synergy with trametinib and synergy with BYL719 and synergy with cetuximab: higher = stronger synergy of knock-down with drug
# Rule for the call: 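a knock-down counts as essential when its robust viability z-score without drug is below -3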
# Calls: active = essential (knock-down alone kills cells); inactive = no change without drug
# In all, the deposit lists 794 reagents; this is an unselected part. 12 of all reagents (1.5%) count as active. 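Calls cover knock-down without drug only; synergy scores stand apart, values above 0.15 being treated as synergy.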 No viability above 1 is reported: the scale is capped. The record does not give: the amount of reagent, the time to read-out.
target gene,"viability z-score, no drug","viability vs control, no drug (fraction of control)",synergy with trametinib,synergy with BYL719,synergy with cetuximab,activity call
AKT2 (AKT serine/threonine kinase 2),-0.329,0.906,0.0374,-0.0102,-0.0248,inactive
DGKK (diacylglycerol kinase kappa),-0.739,0.875,-0.0287,-0.028,-0.123,inactive
ACVR1B (activin A receptor type 1B),0.901,1,-0.017,-0.0456,-0.0304,inactive
ADCK2 (aarF domain containing kinase 2),-1.59,0.81,-0.00382,0.045,-0.0789,inactive
PDK1 (pyruvate dehydrogenase kinase 1),0.204,0.947,0.0136,0.0645,0.0132,inactive
PRKY (protein kinase Y-linked (pseudogene)),0.738,0.988,0.0315,0.0935,0.109,inactive
AK2 (adenylate kinase 2),0.901,1,0.0529,-0.0557,-0.00652,inactive
AKT1 (AKT serine/threonine kinase 1),-0.592,0.886,0,-0.0422,0.00092,inactive
MGA (MAX dimerization protein MGA),-1.71,0.8,-0.0786,-0.1,-0.0652,inactive
PIP4K2B (phosphatidylinositol-5-phosphate 4-kinase type 2 beta),0.176,0.945,0.0486,0.123,0.0312,inactive
SRMS,-1.55,0.813,0.0298,-0.0267,-0.0717,inactive
AK3 (adenylate kinase 3),0.65,0.981,0.0211,-0.0398,-0.0302,inactive
DYRK4 (dual specificity tyrosine phosphorylation regulated kinase 4),-0.555,0.889,-0.0818,0.00505,-0.0583,inactive
PRKCQ (protein kinase C theta),0.901,1,0.0859,0.0803,0.0378,inactive
GAK (cyclin G associated kinase),0.901,1,0.0297,0.00985,0.0334,inactive
CDKL2 (cyclin dependent kinase like 2),-0.0283,0.929,0.104,0.0969,0.0634,inactive
CDK9 (cyclin dependent kinase 9),0.901,1,-0.0495,0.0627,0.0492,inactive
CDADC1 (cytidine and dCMP deaminase domain containing 1),0.308,0.955,0.0892,0.0134,0.0832,inactive
CSNK1E (casein kinase 1 epsilon),-2.6,0.733,0.0104,0.0216,-0.0873,inactive
NUAK1 (NUAK family kinase 1),-0.874,0.864,-0.0498,0.135,-0.0277,inactive
WNK1 (WNK lysine deficient protein kinase 1),0.726,0.987,-0.0698,0.0114,-0.0577,inactive
KSR2 (kinase suppressor of ras 2),0.901,1,0.0303,-0.0538,-0.0793,inactive
PTGS1 (prostaglandin-endoperoxide synthase 1),0.587,0.976,-0.0087,0.157,0.0629,inactive
"PFKP (phosphofructokinase, platelet)",-0.413,0.9,-0.0214,0.00341,-0.0886,inactive
CALM3 (calmodulin 3),-1.26,0.835,-0.0971,-0.000713,-0.113,inactive
PRKAG1 (protein kinase AMP-activated non-catalytic subunit gamma 1),0.281,0.953,0.0955,0.0337,0.0129,inactive
STK32C (serine/threonine kinase 32C),0.484,0.968,-0.00831,-0.0545,0.00323,inactive
"GUCY2EP (guanylate cyclase 2E, pseudogene)",-1.63,0.807,-0.0661,-0.0387,-0.0325,inactive
CHD9 (chromodomain helicase DNA binding protein 9),0.458,0.966,-0.0661,-0.011,-0.0669,inactive
PIK3C3 (phosphatidylinositol 3-kinase catalytic subunit type 3),-0.154,0.919,-0.024,0.0403,-0.0471,inactive
IKBKB (inhibitor of nuclear factor kappa B kinase subunit beta),-1.45,0.82,0.0362,-0.03,-0.107,inactive
GUCY2C (guanylate cyclase 2C),0.714,0.986,-0.0455,-0.107,-0.102,inactive
RAD21 (RAD21 cohesin complex component),-2.35,0.752,-0.0186,0.131,-0.089,inactive
ATP23,0.311,0.955,-0.0311,0.0668,-0.0333,inactive
DUSP21 (dual specificity phosphatase 21),-0.304,0.908,-0.0947,0.0245,-0.101,inactive
CLK3 (CDC like kinase 3),-0.0926,0.924,-0.0535,0.0306,-0.0069,inactive
HUS1 (HUS1 checkpoint clamp component),0.901,1,-0.107,-0.0673,-0.0387,inactive
FGFR2 (fibroblast growth factor receptor 2),-1.7,0.801,-0.109,-0.139,-0.059,inactive
CDK15 (cyclin dependent kinase 15),0.901,1,-0.0418,-0.101,-0.00182,inactive
"GUCY2D (guanylate cyclase 2D, retinal)",-5.09,0.542,-0.104,-0.108,0.0662,active
AAK1 (AP2 associated kinase 1),-0.771,0.872,0.0476,0.0568,-0.0535,inactive
BRDT (bromodomain testis associated),0.805,0.993,0.0207,0.0161,0.0146,inactive
TBCK (TBC1 domain containing kinase),0.00452,0.932,-0.0515,-0.0093,-0.0828,inactive
PIK3CD,0.901,1,0.0392,-0.00479,0.106,inactive
CDK17 (cyclin dependent kinase 17),0.425,0.964,-0.00341,-0.0371,0.0865,inactive
RUNX1 (RUNX family transcription factor 1),0.46,0.966,0.0289,0.0276,0.125,inactive
BMPR1A (bone morphogenetic protein receptor type 1A),-0.785,0.871,-0.116,-0.0315,-0.0599,inactive
MAP4K1 (mitogen-activated protein kinase kinase kinase kinase 1),-0.75,0.874,-0.0886,-0.0432,-0.0624,inactive
PHKA1 (phosphorylase kinase regulatory subunit alpha 1),0.901,1,-0.0568,0.0375,-0.00842,inactive
NME3 (NME/NM23 nucleoside diphosphate kinase 3),-0.0611,0.926,-0.0112,-0.0162,0.0752,inactive
PRKAR2B,-0.413,0.9,0.106,0.122,-0.0134,inactive
"PIM1 (Pim-1 proto-oncogene, serine/threonine kinase)",0.0632,0.936,-0.112,0.0752,-0.0165,inactive
CASK (calcium/calmodulin dependent serine protein kinase),-0.947,0.859,0.0203,-0.0207,-0.0678,inactive
CDK6 (cyclin dependent kinase 6),-1.08,0.849,-0.0111,-0.0154,-0.041,inactive
NADK (NAD kinase),0.901,1,0.0259,0.0672,-0.0139,inactive
DNMT3A (DNA methyltransferase 3 alpha),0.758,0.989,-0.0739,-0.141,-0.0379,inactive
CALM1 (calmodulin 1),0.901,1,0.0299,0.0308,0.0272,inactive
BTK (Bruton tyrosine kinase),-0.555,0.889,-0.12,0.068,0.163,inactive
CSNK2A2 (casein kinase 2 alpha 2),-0.262,0.911,-0.0593,0.0254,-0.17,inactive
ERBB3 (erb-b2 receptor tyrosine kinase 3),0.287,0.953,-0.0398,-0.0839,-0.0626,inactive
CAMK2B (calcium/calmodulin dependent protein kinase II beta),0.682,0.983,0.00832,0.0178,-0.0865,inactive
MAP3K3 (mitogen-activated protein kinase kinase kinase 3),0.901,1,-0.00264,-0.0339,0.0974,inactive
IP6K1 (inositol hexakisphosphate kinase 1),0.901,1,0.0326,-0.000972,-0.0498,inactive

Part of the list above, showing only “synergy with trametinib”:
PHKA1 (phosphorylase kinase regulatory subunit alpha 1) = -0.0568
NME3 (NME/NM23 nucleoside diphosphate kinase 3) = -0.0112
PRKAR2B = 0.106
PIM1 (Pim-1 proto-oncogene, serine/threonine kinase) = -0.112
CASK (calcium/calmodulin dependent serine protein kinase) = 0.0203
